Source: PubChem BioAssay AID504847 (National Center for Advancing Translational Sciences (NCATS), 2011)
Values joined by “and” are separate entries in the source; they are usually repeats but may differ in a detail not shown here. Identical values can stand only once. The campaign covered roughly 400,000 compounds. About 3,700 (0.93%) were called active. Inconclusive results, whose numbers are uncertain, are shown with a selection of clear calls. Calls come from the whole dose curve; as a rule, active = well fitted inhibition curve with a large enough effect; inconclusive = small, poorly fitted or top-dose-only effect, or another doubt; inactive = no such curve, though single readings can be large or run the other way. Potencies beside an inconclusive call are fits to weak or partial responses and may not hold up.

Sequences of proteins named here, by UniProt entry; tags and fusion partners are left off. A change or cut given only in a name is not applied to a line headed by its entry.
UniProt P11473: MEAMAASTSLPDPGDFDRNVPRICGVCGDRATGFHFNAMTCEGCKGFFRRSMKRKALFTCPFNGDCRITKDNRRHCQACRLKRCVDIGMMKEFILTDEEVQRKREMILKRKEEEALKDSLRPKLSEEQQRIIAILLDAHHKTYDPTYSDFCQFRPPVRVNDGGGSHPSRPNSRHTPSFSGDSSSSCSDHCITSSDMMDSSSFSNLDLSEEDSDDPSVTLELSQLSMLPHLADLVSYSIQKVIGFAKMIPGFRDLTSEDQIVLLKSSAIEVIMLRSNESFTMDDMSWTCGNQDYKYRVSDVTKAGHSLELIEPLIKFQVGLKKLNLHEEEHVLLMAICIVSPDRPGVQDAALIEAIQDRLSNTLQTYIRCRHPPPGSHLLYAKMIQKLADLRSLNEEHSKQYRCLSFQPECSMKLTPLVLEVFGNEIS

Molecular target: Vitamin D3 receptor (Homo sapiens) (UniProt P11473)
Assay: Inhibitors of the vitamin D receptor (VDR): qHTS
Settings: VDR-SRC2-3 peptide fluorescence polarization, 2 h; max response, negative = inhibition: hits give low values
Summary of the method: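 Inhibition of the VDR/SRC2-3 peptide interaction is quantified by fluorescence polarization. Compounds (23 nl, pintool) incubate with the reagents for 2 hours at ambient room temperature.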
% is set by controls: 0 for no effect and ±100 for the full control effect; potency is the fitted concentration of half-maximal effect.

Potency, active:
COCCN1C=C2C(=O)C(C)(OC(=O)CCC(=O)OC)C(=O)C(Br)=C2C=C1c1ccc(OC)cc1 (centres undefined) 22.4 µM
Cc1nnc(SCC2=C(C(=O)O)N3C(=O)C(NC(=O)COc4ccc(F)cc4)C3SC2)s1 (centres undefined) 79.4 µM
COc1cccc(NC(=O)CSc2nnc(-c3ccco3)c(-c3ccco3)n2)c1 89.1 µM
COC(=O)c1cc(=O)nc2sc(-c3ccc(F)cc3)nn12 44.7 µM
O=C(/C=C/c1ccco1)c1cccc([N+](=O)[O-])c1 70.8 µM
CCOC(=O)c1c(N)sn(-c2ccccc2C)c1=S 35.5 µM
CCOC(=O)/C=C(\C)Sc1cc(O)c2ccccc2c1O 20 µM

Potency, inconclusive:
CCCN1C(=O)c2ccccc2NC1c1ccc(Cl)c(Cl)c1 (centres undefined) 50.1 µM [inhibitor, partial curve, poor fit]
N#CC(C#N)=C1c2cc(S(N)(=O)=O)ccc2-c2ccc(S(N)(=O)=O)cc21 89.1 µM [inhibitor, partial curve, poor fit]
O=C1[C@H]2CCCC[C@H]2C(=O)N1CCCCN1CCN(c2nsc3ccccc23)CC1 44.7 µM [inhibitor, partial curve] and 89.1 µM [inhibitor, partial curve, poor fit]
O=C(C=Cc1ccco1)c1ccc([N+](=O)[O-])cc1 25.1 µM [inhibitor, full curve]
O=C(COC(=O)c1ccccc1NC(=O)c1ccco1)NCc1ccc2c(c1)OCO2 100 µM [inhibitor, single point]
Cc1cccc(NC(=O)CSc2nnc(-c3ccco3)c(-c3ccco3)n2)c1C 89.1 µM [inhibitor, single point]
CCC(C)NC(=O)CNC(=O)c1nn(-c2ccc(OC)cc2OC)c(=O)c2ccccc12 (centres undefined) 89.1 µM [inhibitor, partial curve]
COC(=O)c1ccc(NC(=O)C23CC4CC(C2)CC(n2cnc(Cl)n2)(C4)C3)cc1 25.1 µM [inhibitor, full curve]
O=C(NCc1ccco1)c1cc(S(=O)(=O)N2CCOCC2)ccc1Br 100 µM [inhibitor, single point]
CC1=CC2=NC(=O)CC(C)(C(=O)N(CC(=O)NC3CCCC3)c3cc(C)cc(C)c3)N2C=C1 (centres undefined) 11.2 µM [inhibitor, partial curve, poor fit]
O=C(CSc1nc(C2CC2)nc2ccccc12)Nc1ccccc1 44.7 µM [inhibitor, partial curve, poor fit]
COc1ccc(-n2nc(C(=O)NCCCN3CCOCC3)c3ccccc3c2=O)c(OC)c1 11.2 µM [inhibitor, partial curve]
Cc1ccc(C)c(S(=O)(=O)N2CCCCC2CCNC(=O)C(=O)NCc2ccccc2)c1 (centres undefined) 79.4 µM [inhibitor, single point]
COC(=O)c1cccc(N2C(=O)C(Cl)=C(N3CCOCC3)C2=O)c1 56.2 µM [inhibitor, partial curve, poor fit]
CN1CCN(Cc2c(O)ccc3cc(Br)ccc23)CC1 15.8 µM [inhibitor, full curve, poor fit]
CCN1CCOC(=O)C1CC(=O)Nc1ccc(Br)cc1 (centres undefined) 50.1 µM [inhibitor, partial curve]
O=C(CCSCc1ccccc1F)NCc1cccnc1 89.1 µM [inhibitor, single point]
COc1ccc(OC)c(C2=NS(=O)(=O)N(C)C(C(=O)Nc3ccc(F)cc3F)=C2)c1 6.31 µM [inhibitor, partial curve, poor fit]
COc1ccc2oc(=N)c(C(=O)NCc3ccccc3)cc2c1 79.4 µM [inhibitor, single point]
NNC(=O)c1[nH]c2ccccc2c1-c1ccccc1 89.1 µM [inhibitor, partial curve]
Cc1c(NS(=O)(=O)c2cc(C(=O)NCCc3ccc(F)cc3)cc(Cl)c2Cl)c(=O)n(-c2ccccc2)n1C 89.1 µM [inhibitor, single point]
CSc1ccccc1NC(=O)c1cc(CC(C)C)on1 79.4 µM [inhibitor, partial curve]
CCOc1ccc(NC(=O)C2CSC(c3ccncc3)=N2)cc1 (centres undefined) 89.1 µM [inhibitor, single point]

Max response, negative = inhibition, inactive:
O=C(O)CCc1ccc(-c2ccc(Br)cc2)n1-c1ccc(O)cc1 -1.04%
COc1ccccc1C(=O)Nc1c(C(=O)Nc2ccccc2F)oc2ccccc12 -4.53%
COc1ccc(C=O)c(OCc2cn(CC(=O)c3ccc(O)cc3)nn2)c1 -5.18%
CCCCCSc1nc2c(c(=O)[nH]c(=O)n2C)n1C(C)C -13%
Cc1nn(-c2ccccc2)c(Cl)c1/C=N/Nc1ccc(Cl)c(C(=O)O)c1 -11.2%
Clc1ccc(-c2nnc3sc(Cc4cccs4)nn23)cc1 5.04%
CC(C)(C)c1ccc(C(=O)NC2CCS(=O)(=O)C2)cc1 (centres undefined) 16.3%
COc1ccccc1/C=C/C=N/Nc1cccc(C(=O)O)c1 -16%
O=C(CSc1nnc(SCc2ccccc2)s1)N/N=C/c1ccc(Cl)cc1Cl -18.3%
Cc1ccc(Cl)cc1NC(=O)c1sc(-n2nc(C)c(Cc3ccc4c(c3)OCO4)c2C)nc1C 3.21%
CC1=CC(C)(C)NC(=S)N1c1cc(C)cc(C)c1 -9.27%
CCc1ccccc1NC(=O)N1CCCn2nc(C)cc21 11.3%
COc1ccc(NC(=O)CS(=O)(=O)c2ccc(F)cc2)cc1 10.9%
CC(C)Cn1nnnc1S(=O)(=O)CC#N 6.9%
